# Results of single-concentration screens

The chains behind the UniProt entries cited, without tags or fusion partners. Residues count along the entry.
UniProt P9WPC5, whole entry: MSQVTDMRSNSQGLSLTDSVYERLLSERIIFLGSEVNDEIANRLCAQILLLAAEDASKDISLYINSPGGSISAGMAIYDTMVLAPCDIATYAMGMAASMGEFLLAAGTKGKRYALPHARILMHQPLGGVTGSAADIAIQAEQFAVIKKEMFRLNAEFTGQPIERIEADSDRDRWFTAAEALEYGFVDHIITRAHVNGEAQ
UniProt P9WPC3, whole entry partner: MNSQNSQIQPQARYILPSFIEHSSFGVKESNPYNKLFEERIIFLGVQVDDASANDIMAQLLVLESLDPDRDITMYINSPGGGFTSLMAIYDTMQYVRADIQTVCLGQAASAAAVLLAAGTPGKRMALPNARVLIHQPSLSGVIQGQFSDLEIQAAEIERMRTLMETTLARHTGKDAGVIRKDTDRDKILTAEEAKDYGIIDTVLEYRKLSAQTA
UniProt Q4DA54, 1-478: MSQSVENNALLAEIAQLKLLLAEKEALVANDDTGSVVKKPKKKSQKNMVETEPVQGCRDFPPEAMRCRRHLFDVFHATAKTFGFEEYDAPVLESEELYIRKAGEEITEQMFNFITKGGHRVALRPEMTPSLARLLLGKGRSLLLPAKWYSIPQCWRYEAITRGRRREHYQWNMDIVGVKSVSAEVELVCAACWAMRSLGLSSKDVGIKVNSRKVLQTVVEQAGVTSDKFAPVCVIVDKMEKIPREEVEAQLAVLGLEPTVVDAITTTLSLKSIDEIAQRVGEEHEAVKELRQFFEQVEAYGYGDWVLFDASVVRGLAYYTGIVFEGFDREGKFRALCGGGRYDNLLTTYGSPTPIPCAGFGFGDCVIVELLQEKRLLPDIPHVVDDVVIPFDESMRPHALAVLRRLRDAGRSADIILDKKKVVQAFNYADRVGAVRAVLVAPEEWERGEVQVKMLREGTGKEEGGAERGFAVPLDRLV
UniProt I6X8D2, whole entry: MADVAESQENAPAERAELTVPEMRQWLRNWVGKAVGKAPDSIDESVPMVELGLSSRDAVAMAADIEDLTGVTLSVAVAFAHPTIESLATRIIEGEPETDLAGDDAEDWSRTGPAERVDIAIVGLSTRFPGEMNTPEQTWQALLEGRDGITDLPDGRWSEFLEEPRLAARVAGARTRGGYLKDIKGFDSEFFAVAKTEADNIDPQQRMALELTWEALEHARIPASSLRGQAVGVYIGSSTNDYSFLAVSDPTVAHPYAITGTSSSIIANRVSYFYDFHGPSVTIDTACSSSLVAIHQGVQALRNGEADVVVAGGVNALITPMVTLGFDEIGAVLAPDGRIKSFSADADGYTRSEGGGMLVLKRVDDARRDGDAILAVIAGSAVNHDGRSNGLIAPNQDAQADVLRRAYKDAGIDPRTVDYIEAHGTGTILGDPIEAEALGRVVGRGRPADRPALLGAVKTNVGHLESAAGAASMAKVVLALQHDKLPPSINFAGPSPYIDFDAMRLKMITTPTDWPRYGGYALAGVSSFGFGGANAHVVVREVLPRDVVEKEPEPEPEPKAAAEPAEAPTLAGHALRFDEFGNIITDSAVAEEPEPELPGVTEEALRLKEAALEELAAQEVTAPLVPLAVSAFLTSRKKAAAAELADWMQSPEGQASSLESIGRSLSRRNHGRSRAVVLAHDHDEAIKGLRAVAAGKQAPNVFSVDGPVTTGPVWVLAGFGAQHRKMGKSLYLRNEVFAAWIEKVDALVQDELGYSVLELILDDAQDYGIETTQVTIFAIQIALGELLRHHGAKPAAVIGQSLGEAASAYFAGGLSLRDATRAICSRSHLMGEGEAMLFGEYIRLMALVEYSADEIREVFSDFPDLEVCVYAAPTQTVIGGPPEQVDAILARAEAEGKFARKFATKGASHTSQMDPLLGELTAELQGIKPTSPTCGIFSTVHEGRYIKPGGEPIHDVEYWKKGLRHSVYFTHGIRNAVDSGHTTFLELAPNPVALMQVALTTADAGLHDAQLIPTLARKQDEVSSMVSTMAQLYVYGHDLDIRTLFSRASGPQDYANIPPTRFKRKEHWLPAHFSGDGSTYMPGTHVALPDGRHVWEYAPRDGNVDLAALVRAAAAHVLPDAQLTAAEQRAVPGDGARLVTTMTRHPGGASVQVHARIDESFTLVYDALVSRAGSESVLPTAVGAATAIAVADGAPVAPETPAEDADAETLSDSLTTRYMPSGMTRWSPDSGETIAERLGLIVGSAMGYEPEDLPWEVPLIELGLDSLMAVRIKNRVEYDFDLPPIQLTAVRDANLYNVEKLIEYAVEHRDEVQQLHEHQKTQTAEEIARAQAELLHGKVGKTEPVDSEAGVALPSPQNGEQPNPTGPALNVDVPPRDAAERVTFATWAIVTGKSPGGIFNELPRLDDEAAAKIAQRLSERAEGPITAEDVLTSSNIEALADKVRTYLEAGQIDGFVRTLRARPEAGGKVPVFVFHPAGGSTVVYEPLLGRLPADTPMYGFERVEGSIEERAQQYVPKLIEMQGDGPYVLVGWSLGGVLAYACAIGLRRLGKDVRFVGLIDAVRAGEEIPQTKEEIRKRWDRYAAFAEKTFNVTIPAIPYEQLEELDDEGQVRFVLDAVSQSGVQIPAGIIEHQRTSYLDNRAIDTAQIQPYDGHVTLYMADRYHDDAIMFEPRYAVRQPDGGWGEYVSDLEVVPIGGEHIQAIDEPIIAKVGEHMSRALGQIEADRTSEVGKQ
UniProt Q8IDJ8, 1-583: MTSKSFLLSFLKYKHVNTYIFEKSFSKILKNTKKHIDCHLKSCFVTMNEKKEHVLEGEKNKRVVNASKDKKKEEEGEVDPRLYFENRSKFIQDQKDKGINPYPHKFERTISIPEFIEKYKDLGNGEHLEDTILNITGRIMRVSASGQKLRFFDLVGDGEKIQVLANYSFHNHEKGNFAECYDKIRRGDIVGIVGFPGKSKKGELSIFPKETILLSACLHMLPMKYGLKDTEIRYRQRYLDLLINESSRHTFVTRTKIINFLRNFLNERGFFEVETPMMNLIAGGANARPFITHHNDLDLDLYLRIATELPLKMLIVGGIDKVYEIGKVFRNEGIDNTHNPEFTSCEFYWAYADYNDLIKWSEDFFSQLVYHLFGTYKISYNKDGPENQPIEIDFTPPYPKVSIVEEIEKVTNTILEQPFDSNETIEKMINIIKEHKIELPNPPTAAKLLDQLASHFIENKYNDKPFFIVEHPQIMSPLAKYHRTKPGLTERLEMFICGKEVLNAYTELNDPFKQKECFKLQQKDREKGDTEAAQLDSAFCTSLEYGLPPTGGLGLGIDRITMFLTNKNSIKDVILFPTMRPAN

Measurements from “University of Dundee, Small-Polar-MMV Screening Library” (2021), ChEMBL document CHEMBL3988442.

ClpP1P2: 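ClpP1P2, Mycobacterium tuberculosis (UniProt P9WPC5 and UniProt P9WPC3). Protease assay of ClpP1P2, read by the AMC dye that it sets free. Compounds at 50 µM. Direction is inferred from only a few compounds that gave an IC50; most scored high, so higher reads as stronger inhibition. Most other retested compounds had strongly negative values. Size under these conditions: about 69,000 compounds, about 10 of them at 50% or above in at least one test.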
Toxoplasma: 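Assay of Toxoplasma gondii numbers, read through their beta-galactosidase reporter with a colour substrate. Compounds at 10 µM. Higher reads as fewer parasites (inferred from which compounds were picked for retests). Size under these conditions: about 67,000 compounds, about 260 of them at 50% or above in at least one test.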
TcHisRS: 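Enzyme assay of histidyl-tRNA synthetase; the read-out is not stated. Target: Histidine-tRNA ligase, Trypanosoma cruzi CL Brener (UniProt Q4DA54). Compounds at 30 µM. Higher reads as stronger inhibition (inferred: compounds with an IC50 in retests scored well above the rest). Size under these conditions: about 69,000 compounds, about 31 of them at 50% or above in at least one test.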
Pks13 thioesterase: 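Polyketide synthase Pks13, Mycobacterium tuberculosis (UniProt I6X8D2). Enzyme assay of the thioesterase domain of polyketide synthase 13; the read-out is not stated. Concentration: 30 µM. The record gives no direction; the compounds picked for IC50 retests had high values, so higher reads as stronger inhibition. About 67,000 compounds were tested under these conditions; 0.46% (about 300) showed 50% or more at least once.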
PfKRS1: 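Lysine-tRNA ligase, Plasmodium falciparum 3D7 (UniProt Q8IDJ8). Enzyme assay of the cytosolic lysyl-tRNA synthetase in 384-well plates, read by luminescence. Concentration: 30 µM. Direction is inferred from only a few compounds that gave an IC50; most scored high, so higher reads as stronger inhibition. About 69,000 compounds were tested under these conditions; 0.071% (about 49) showed 50% or more at least once.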

Values are the deposited “Percent Effect”, in %.
How 0% and 100% were set is not recorded. Most values in the screen are low, and negative values occur.
Compounds were drawn at random from those tested, without regard to their results.

{"smiles": "COc1cccc(CNC(=O)CN2CCCCC2Cn2cccn2)c1", "stereo": "stereo not shown", "ClpP1P2": 0.09359, "Toxoplasma": -8.447, "TcHisRS": -0.3774, "Pks13 thioesterase": -22.71, "PfKRS1": 6.525}
{"smiles": "Cc1ccsc1CN(C)Cn1nccc1-c1cccnc1", "ClpP1P2": 13.64, "Toxoplasma": -6.603, "TcHisRS": 5.882, "Pks13 thioesterase": -24.13, "PfKRS1": 8.105}
{"smiles": "CN1CCN(Cc2cnc3n2CCN(Cc2cccnc2)CC3)CC1", "ClpP1P2": -16.36, "TcHisRS": 2.804, "Pks13 thioesterase": -13.16, "PfKRS1": 4.908}
{"smiles": "CC(C)n1cnnc1C1CCCN(S(=O)(=O)CCCF)C1", "stereo": "stereo not shown", "ClpP1P2": -8.492, "Toxoplasma": 5.911, "TcHisRS": 3.067, "Pks13 thioesterase": -0.76, "PfKRS1": 8.008}
{"smiles": "O=C(Cn1cccnc1=O)NC(Cc1ccsc1)c1nccs1", "stereo": "stereo not shown", "ClpP1P2": 22.03, "Toxoplasma": 3.025, "TcHisRS": 6.667, "Pks13 thioesterase": -8.446, "PfKRS1": 1.779}
{"smiles": "CC(=O)c1ccc(N2CCCC(CO)(Cc3ccccc3F)C2)nc1", "stereo": "stereo not shown", "ClpP1P2": -8.115, "Toxoplasma": -10.46, "TcHisRS": -1.508, "Pks13 thioesterase": -9.088, "PfKRS1": -4.253}
{"smiles": "CN(C)C(=O)N1CC2(CCOCC2)c2cc(NS(=O)(=O)C3CC3)ccc21", "ClpP1P2": 8.257, "Toxoplasma": -3.564, "TcHisRS": 7.362, "Pks13 thioesterase": -16.79, "PfKRS1": 4.991}
{"smiles": "[H][C@@]12CNC[C@]1([H])CN(c1nc(C)nc3ccsc13)C2", "Toxoplasma": -4.33}
{"smiles": "O=C(c1ccc(N2CCCCCC2)nn1)N1CCc2ccccc21", "ClpP1P2": -5.419, "Toxoplasma": 19.1, "TcHisRS": 12, "Pks13 thioesterase": -18.82, "PfKRS1": 0.6654}
{"smiles": "Cc1ccc(N2CCCC(NCCS(C)(=O)=O)C2)nn1", "stereo": "stereo not shown", "ClpP1P2": -5.1, "Toxoplasma": -4.945, "TcHisRS": 2.128, "Pks13 thioesterase": 10.83, "PfKRS1": -2.611}
{"smiles": "Cc1ccccc1CNc1ccc(S(N)(=O)=O)c(C(F)(F)F)c1", "ClpP1P2": -4.448, "Toxoplasma": 2.96, "TcHisRS": 7.263, "Pks13 thioesterase": -38.61, "PfKRS1": 4.69}
{"smiles": "Cn1cccc1C(O)CNC(=O)COc1ccc(Cl)cc1Cl", "stereo": "stereo not shown", "ClpP1P2": 1.359, "Toxoplasma": 26.13, "TcHisRS": -3.093, "Pks13 thioesterase": -27.65, "PfKRS1": -2.863}
{"smiles": "OC(CNCCc1nnc2ccccn12)c1ccc2c(c1)OCO2", "stereo": "stereo not shown", "ClpP1P2": 2.135, "Toxoplasma": 27.42, "TcHisRS": 12.17, "Pks13 thioesterase": -18.43, "PfKRS1": 9.424}
{"smiles": "Cn1ccnc1CN1CCN2C[C@H](OCc3ccccc3)C[C@H]2C1", "ClpP1P2": -1.609, "TcHisRS": 5.882, "Pks13 thioesterase": -26.85, "PfKRS1": 11.98}
{"smiles": "O=C(O)C(F)(F)F.O=C(O)C(F)(F)F.[H][C@]12CCC[C@@H](CN(C)C3CC3)[C@@]1([H])CN(Cc1ccc(OC)nc1)C2", "Toxoplasma": 2.386}
{"smiles": "COc1ccc2c(c1)C1(CCN(Cc3cnn(C)c3)CC1)N(C)CC2", "ClpP1P2": -2.954, "TcHisRS": 5.464, "Pks13 thioesterase": -14.29, "PfKRS1": -2.186}
{"smiles": "COc1c(CNC2CCc3cc(F)ccc32)c(C(C)C)nn1C", "stereo": "stereo not shown", "ClpP1P2": -16.05, "Toxoplasma": -1.97, "TcHisRS": 1.994, "Pks13 thioesterase": -23.88, "PfKRS1": -1.099}
{"smiles": "Cc1cccc(NC(=O)CN2C(=O)CC(C)(C)c3ccccc32)n1", "ClpP1P2": -4.482, "Toxoplasma": -7.289, "TcHisRS": 8.911, "Pks13 thioesterase": -2.704, "PfKRS1": 2.677}
{"smiles": "Cc1nc(C)n(CC2CN(CCc3ccccn3)CCO2)n1", "stereo": "stereo not shown", "ClpP1P2": -13.37, "Toxoplasma": -0.3623, "TcHisRS": 3.093, "Pks13 thioesterase": -2.717, "PfKRS1": 1.852}
{"smiles": "COc1ccccc1S(=O)(=O)CCOC(C)C", "ClpP1P2": -2.699, "Toxoplasma": 0.5682, "TcHisRS": 2.941, "Pks13 thioesterase": -65.53, "PfKRS1": 4.939}
{"smiles": "COc1ccccc1OCc1cc(C(=O)N2C[C@H](O)[C@@H](N(C)C)C2)n[nH]1", "ClpP1P2": -0.9396, "Toxoplasma": -8.258, "TcHisRS": 7.317, "Pks13 thioesterase": 2.472, "PfKRS1": 3.248}
{"smiles": "COc1ccc(CC(=O)N2CCN(Cc3ccco3)C[C@H]2C)cc1OC", "ClpP1P2": -3.018, "Toxoplasma": -3.817, "TcHisRS": 6.513, "Pks13 thioesterase": 4.03, "PfKRS1": 2.847}

The first 2 entries again:

{"smiles": "COc1cccc(CNC(=O)CN2CCCCC2Cn2cccn2)c1", "stereo": "stereo not shown", "ClpP1P2": 0.09359, "Toxoplasma": -8.447, "TcHisRS": -0.3774, "Pks13 thioesterase": -22.71, "PfKRS1": 6.525}
{"smiles": "Cc1ccsc1CN(C)Cn1nccc1-c1cccnc1", "ClpP1P2": 13.64, "Toxoplasma": -6.603, "TcHisRS": 5.882, "Pks13 thioesterase": -24.13, "PfKRS1": 8.105}